Laboratory results published in patent US20190375837A1 (priority 2017, published 2019).

Assay: general procedure: Fmoc solid-phase peptide synthesis; H-Cys(Trt)-2-CT-polystyrene resin (RAPP Polymere), pre-loaded; HATU, DIPEA
Settings: conjugation step

| Substance | conjugation yield |
| --- | --- |
| AAZ*-ValCit-MMAE | 50.8% yield |
| NH2^+-ValCit-MMAE Negative Control | 56.4% yield |
